These are yes or no findings as the source states them, for the method shown. Some entries that bind do so weakly or less than the wild type.
Target: CGRP receptor (CALCRL:RAMP1) on CALCRL:RAMP1-CRE-bla Freestyle 293F cells (UniProt Q16602)
Test: CRE-bla reporter assay on CALCRL:RAMP1 Freestyle 293F cells; binding inferred by the filing from receptor activation

Protein sequences, listed by entry. Tags and fused reporters are not part of them. Lines headed by an entry give the natural chain unless they say otherwise; changes in a name come on top.
UniProt Q16602: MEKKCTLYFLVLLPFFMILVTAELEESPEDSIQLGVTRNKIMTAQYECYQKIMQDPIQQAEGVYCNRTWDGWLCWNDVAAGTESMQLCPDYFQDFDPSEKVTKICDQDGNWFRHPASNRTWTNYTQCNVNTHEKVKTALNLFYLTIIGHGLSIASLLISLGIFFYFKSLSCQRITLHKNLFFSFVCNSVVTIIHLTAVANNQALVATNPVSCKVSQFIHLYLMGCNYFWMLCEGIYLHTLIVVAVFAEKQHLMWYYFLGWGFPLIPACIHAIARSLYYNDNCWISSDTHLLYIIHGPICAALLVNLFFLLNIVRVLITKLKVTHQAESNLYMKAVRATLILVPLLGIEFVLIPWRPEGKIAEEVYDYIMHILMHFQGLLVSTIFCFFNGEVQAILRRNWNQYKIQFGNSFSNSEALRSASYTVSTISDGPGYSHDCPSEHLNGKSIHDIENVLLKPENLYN

binding: binds
Binder: ACDTATCVLGRLSQELHRLQTYPRTNVGSKAF (C-terminal amide (-NH2)) [ACX017 (SEQ ID NO:1)]

From patent publication US20160207975A1 (published 2016)
